Measurements from PMC9885499.
These are yes or no findings as the source states them, for the method shown. Binding seen in cells or lysates may run through a third protein. Some results given as binding are weak or reduced against the parent protein; the word gives no strength.

The chains behind the UniProt entries cited, without tags or fusion partners. Where a name states a change or a piece, a line headed by the entry shows the natural chain unless it says otherwise. A line that says so, or that is headed by a name, gives the form on record, which may keep a tag or linker. Residues count along the entry.
UniProt Q8TB45: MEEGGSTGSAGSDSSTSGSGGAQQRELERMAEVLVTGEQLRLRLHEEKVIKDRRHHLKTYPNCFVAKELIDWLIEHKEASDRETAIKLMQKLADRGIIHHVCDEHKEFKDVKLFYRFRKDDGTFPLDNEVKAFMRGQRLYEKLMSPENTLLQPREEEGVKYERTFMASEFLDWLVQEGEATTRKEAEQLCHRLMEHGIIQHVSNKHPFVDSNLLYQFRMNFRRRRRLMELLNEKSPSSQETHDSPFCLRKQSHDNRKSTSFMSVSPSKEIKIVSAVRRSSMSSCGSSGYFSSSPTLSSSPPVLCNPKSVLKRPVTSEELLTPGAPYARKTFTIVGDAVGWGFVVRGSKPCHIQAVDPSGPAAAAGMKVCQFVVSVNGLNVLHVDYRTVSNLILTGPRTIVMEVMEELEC
N-terminal Flag tagged DEPTOR PDZ domain: residues 330-407 of Q8TB45
UniProt Q9GZV5: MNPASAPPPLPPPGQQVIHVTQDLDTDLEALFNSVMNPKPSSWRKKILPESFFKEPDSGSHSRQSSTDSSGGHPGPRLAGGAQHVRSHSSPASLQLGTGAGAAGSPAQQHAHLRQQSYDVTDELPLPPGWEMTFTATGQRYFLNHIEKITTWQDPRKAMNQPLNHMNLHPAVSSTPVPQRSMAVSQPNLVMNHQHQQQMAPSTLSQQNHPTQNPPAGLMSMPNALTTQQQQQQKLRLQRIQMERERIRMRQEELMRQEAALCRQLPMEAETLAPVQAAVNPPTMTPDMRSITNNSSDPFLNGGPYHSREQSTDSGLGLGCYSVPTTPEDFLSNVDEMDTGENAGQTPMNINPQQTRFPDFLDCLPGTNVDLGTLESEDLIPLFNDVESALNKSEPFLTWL
UniProt Q03431, residues 27-593: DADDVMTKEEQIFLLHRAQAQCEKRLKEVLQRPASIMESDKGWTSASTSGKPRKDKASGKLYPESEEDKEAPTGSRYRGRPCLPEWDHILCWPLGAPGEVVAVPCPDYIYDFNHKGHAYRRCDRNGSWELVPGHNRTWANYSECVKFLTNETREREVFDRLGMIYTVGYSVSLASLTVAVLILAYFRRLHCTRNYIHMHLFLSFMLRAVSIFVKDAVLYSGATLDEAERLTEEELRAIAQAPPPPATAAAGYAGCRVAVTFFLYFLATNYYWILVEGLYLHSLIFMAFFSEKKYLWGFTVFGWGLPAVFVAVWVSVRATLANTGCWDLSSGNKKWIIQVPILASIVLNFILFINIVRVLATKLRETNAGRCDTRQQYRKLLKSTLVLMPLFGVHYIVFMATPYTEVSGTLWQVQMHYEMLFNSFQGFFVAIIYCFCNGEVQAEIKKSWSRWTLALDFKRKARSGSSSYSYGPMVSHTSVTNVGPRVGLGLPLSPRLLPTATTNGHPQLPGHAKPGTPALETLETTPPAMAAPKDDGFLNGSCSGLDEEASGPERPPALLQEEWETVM

What was measured:
[1] = target: N-terminal Flag tagged DEPTOR PDZ domain (UniProt Q8TB45); test: co-IP; HEK293T cells cotransfected; starved O/N, then 10% FBS alone or with MG132 for 4 h (or starvation only); Flag-tagged bait pulled down with anti-Flag magnetic beads, HA-tagged partner detected by western blot with anti-HA antibody
[2] = target: N-terminal Flag tagged DEPTOR (UniProt Q8TB45); test: as above
[3] = target: N-terminal HA tagged TAZ (UniProt Q9GZV5); test: co-IP; HEK293T cells cotransfected; starved O/N, then 10% FBS alone or with MG132 for 4 h (or starvation only); HA-tagged bait pulled down with anti-HA magnetic beads, Flag-tagged partner detected by western blot with anti-Flag antibody

binding [1]	binding [2]	binding [3]	Substance
binds	binds	–	N-terminal HA tagged PTH1R (from UniProt Q03431 27-593) (receptor)
–	–	binds	N-terminal Flag tagged DEPTOR (from UniProt Q8TB45 1-409)
